PubChem BioAssay AID602196, INSERM – 2012
Aim: 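Genes whose knock-down alters cisplatin killing of lung cancer cells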. Cells: human A549 lung cancer cells. Reagent: siRNA pair against human genes. Timing: 48 h transfection before cisplatin; time from cisplatin to read-out not stated. Conditions: cisplatin at a dose killing half of control-siRNA cells; exact dose and duration not given. Detection: 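Shift in cisplatin death relative to control siRNA, from -50 (all cells die) to +50 (no cells die); siRNAs harmful on their own scored 0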. Reading the numbers: two-siRNA summed score (-2 to +2): higher = both siRNAs protect from cisplatin killing; -2 means both sensitise; mean protection from cisplatin (shift in death): higher = protection from cisplatin killing. Hit rule: 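Each siRNA scores 0 if harmful alone by LDH or WST-1, otherwise +1 if it reduces and -1 if it increases cisplatin killing; a gene is active when both siRNAs agree (sum +2 or -2)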. Meaning of the calls: active = both siRNAs shift cisplatin killing the same way; inactive = no consistent shift, or siRNA harmful alone.
In all, the deposit lists about 23,000 reagents; below is a random part of them. In the full data, 455 (2%) are marked active. 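Active includes both protection and sensitisation; some change values fall well beyond the stated -50 to +50 range.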 Reagents against one gene are numbered here. Not all columns of the deposit are shown. Not stated in the record: the amount of reagent.

What is on record for LOC400751?
two-siRNA summed score (-2 to +2): 0; mean protection from cisplatin (shift in death) (%): -1.7; activity call: inactive

What did the screen give for LOC441456?
two-siRNA summed score (-2 to +2): 0; mean protection from cisplatin (shift in death) (%): 0.6; activity call: inactive

How did the screen score NDST3?
two-siRNA summed score (-2 to +2): 0; mean protection from cisplatin (shift in death) (%): -3.9; activity call: inactive

With CCDC7 #1, what does the deposit list?
two-siRNA summed score (-2 to +2): 0; mean protection from cisplatin (shift in death) (%): 3; activity call: inactive

For CCDC7 #2, what was measured?
two-siRNA summed score (-2 to +2): 0; mean protection from cisplatin (shift in death) (%): 5.2; activity call: inactive

What is on record for LOC440599?
two-siRNA summed score (-2 to +2): 0; mean protection from cisplatin (shift in death) (%): 10.5; activity call: inactive

How did the screen score SSBP2?
two-siRNA summed score (-2 to +2): 0; mean protection from cisplatin (shift in death) (%): 12.8; activity call: inactive

What did the screen give for JAK2?
two-siRNA summed score (-2 to +2): -1; mean protection from cisplatin (shift in death) (%): -12.7; activity call: inactive

How did the screen score HELQ?
two-siRNA summed score (-2 to +2): 1; mean protection from cisplatin (shift in death) (%): 18.4; activity call: inactive

With SLC19A4P, what does the deposit list?
two-siRNA summed score (-2 to +2): 1; mean protection from cisplatin (shift in death) (%): 3.3; activity call: inactive

With FLJ20618, how do the results read?
two-siRNA summed score (-2 to +2): 1; mean protection from cisplatin (shift in death) (%): 0.6; activity call: inactive

For LOC442461, what does the deposit list?
two-siRNA summed score (-2 to +2): 0; mean protection from cisplatin (shift in death) (%): 2.9; activity call: inactive

With USP10, how do the results read?
two-siRNA summed score (-2 to +2): 0; mean protection from cisplatin (shift in death) (%): 2; activity call: inactive

For NFYBP1, what does the deposit list?
two-siRNA summed score (-2 to +2): 0; mean protection from cisplatin (shift in death) (%): 2.2; activity call: inactive

With LOC440510, what was measured?
two-siRNA summed score (-2 to +2): 1; mean protection from cisplatin (shift in death) (%): 13; activity call: inactive

With DCAF8, what was measured?
two-siRNA summed score (-2 to +2): 0; mean protection from cisplatin (shift in death) (%): 4.9; activity call: inactive

What is on record for KLF14?
two-siRNA summed score (-2 to +2): 0; mean protection from cisplatin (shift in death) (%): 23.5; activity call: inactive

With PCNX3, what was measured?
two-siRNA summed score (-2 to +2): 0; mean protection from cisplatin (shift in death) (%): 7.8; activity call: inactive

With LOC389562, how do the results read?
two-siRNA summed score (-2 to +2): 1; mean protection from cisplatin (shift in death) (%): 5.8; activity call: inactive

For POLD1, how do the results read?
two-siRNA summed score (-2 to +2): 0; mean protection from cisplatin (shift in death) (%): -9.6; activity call: inactive

With INO80D, how do the results read?
two-siRNA summed score (-2 to +2): 0; mean protection from cisplatin (shift in death) (%): -6.7; activity call: inactive

How did the screen score LOC346171?
two-siRNA summed score (-2 to +2): 1; mean protection from cisplatin (shift in death) (%): 1.1; activity call: inactive

How did the screen score EGFL7?
two-siRNA summed score (-2 to +2): 0; mean protection from cisplatin (shift in death) (%): 22.2; activity call: inactive

With LOC388474, what does the deposit list?
two-siRNA summed score (-2 to +2): 0; mean protection from cisplatin (shift in death) (%): 13.5; activity call: inactive

What is on record for TRMT112?
two-siRNA summed score (-2 to +2): 0; mean protection from cisplatin (shift in death) (%): 11.1; activity call: inactive

For ITPR2, what was measured?
two-siRNA summed score (-2 to +2): 0; mean protection from cisplatin (shift in death) (%): 14.1; activity call: inactive

Just “two-siRNA summed score (-2 to +2)”, for 3 of the entries above:
HELQ	1
SLC19A4P	1
FLJ20618	1

The listing continues.
What did the screen give for ZNF208?
two-siRNA summed score (-2 to +2): 1; mean protection from cisplatin (shift in death) (%): 14.9; activity call: inactive

With LOC440715, what does the deposit list?
two-siRNA summed score (-2 to +2): 1; mean protection from cisplatin (shift in death) (%): 14.5; activity call: inactive

For CYLC2, what does the deposit list?
two-siRNA summed score (-2 to +2): 0; mean protection from cisplatin (shift in death) (%): -11.1; activity call: inactive

What did the screen give for LOC441126?
two-siRNA summed score (-2 to +2): 0; mean protection from cisplatin (shift in death) (%): 10; activity call: inactive

Which result is listed for ZNF503-AS2?
two-siRNA summed score (-2 to +2): 1; mean protection from cisplatin (shift in death) (%): 26.7; activity call: inactive

Which result is listed for NPFFR2?
two-siRNA summed score (-2 to +2): 0; mean protection from cisplatin (shift in death) (%): 7.4; activity call: inactive

What did the screen give for TMBIM1?
two-siRNA summed score (-2 to +2): 0; mean protection from cisplatin (shift in death) (%): 2.8; activity call: inactive

How did the screen score CYB5R2?
two-siRNA summed score (-2 to +2): -1; mean protection from cisplatin (shift in death) (%): -24.8; activity call: inactive

Which result is listed for DMRT3?
two-siRNA summed score (-2 to +2): 0; mean protection from cisplatin (shift in death) (%): -1.6; activity call: inactive

For BAIAP2L2, what does the deposit list?
two-siRNA summed score (-2 to +2): 0; mean protection from cisplatin (shift in death) (%): -6.7; activity call: inactive

With PRSS8, what does the deposit list?
two-siRNA summed score (-2 to +2): -1; mean protection from cisplatin (shift in death) (%): -33.6; activity call: inactive

Which result is listed for EPCIP-AS1?
two-siRNA summed score (-2 to +2): 0; mean protection from cisplatin (shift in death) (%): 16; activity call: inactive

What did the screen give for SLC52A2?
two-siRNA summed score (-2 to +2): 0; mean protection from cisplatin (shift in death) (%): -3.9; activity call: inactive

With IRS2, what does the deposit list?
two-siRNA summed score (-2 to +2): -1; mean protection from cisplatin (shift in death) (%): -13.7; activity call: inactive
